By UniProt entry, the sequences of proteins in these tests, tags left out. Residues count along the entry.
UniProt P97303, residues 331-520: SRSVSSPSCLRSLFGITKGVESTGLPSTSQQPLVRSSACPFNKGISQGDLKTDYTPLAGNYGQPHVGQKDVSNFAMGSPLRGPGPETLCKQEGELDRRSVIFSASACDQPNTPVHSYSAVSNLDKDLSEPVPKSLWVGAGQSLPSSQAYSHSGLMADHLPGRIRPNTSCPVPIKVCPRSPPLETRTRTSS

According to publication PMC11699347, “Heme regulates protein interactions and phosphorylation of BACH2 intrinsically disordered region in humoral response” (iScience, 2024):

B1: Serine/threonine-protein phosphatase 4 regulatory subunit 1 (protein, UniProt Q8K2V1 1-951)
chain: MADLSLLQEDLPEDADGLDVDDYSSESDVIIIPSALDFVSQDEMLTPLGRLDKYAASENVFNRQMVARSLLDTLREVCDDERDCIAVLERISRLADDSEPTVRAELMEQVPHIALFCQENRPSIPYAFSKYLLPIVVRYLADQNNQVRKTSQAALLALLEQELIERFDVETKVCPVLIDLTAPDSNDDVKTEAVAIMCKMAPMVGKDITERLILPRFCEMCCDCRMFHVRKVCAANFGDICSVVGQQATEEMLLPRFFQLCSDNVWGVRKACAECFMAVSCATCQEIRRTKLSALFINLISDPSRWVRQAAFQSLGPFISTFANPSSSGQCFKDESKSSEDSSAEDKDRMRDNDVVEEEHRRPEDAPSDLSAPHSSARLESLEGCAAKTPGHSAGDVPAPVDSSLLCTLSSESPQEAASNDENGRKPDTNSKSASRPDAGTSSPEATPLDQDMFNSFHFWRTPLPKIDLDKELQQDPEERLSPERTGDVPAAPLPGPPNITMATRKELEEMIENLEPHMDDPDVKAQVDVLSAALRASSLDAHEETGGVEQRSELQDEVCVSELPDCNISHDTCVPLISAAEENAEATPDYVHGGADVSPGDGFSPDEDRRPKVQDVVPQALLDQYLSMTDPSRAQTVDTEIAKHCAYSLPGVALTLGRQNWHCLRETYETLASDMQWKVRRTLAFSIHELAVILGDQLTAADLVPIFNGFLKDLDEVRIGVLKHLHDFLKLLHIDKRREYLYQLQEFLVTDNSRNWRFRAELAEQLILLLELYSPRDVYDYLRPIALNLCADKVSSVRWISYKLVSEMVKKLHTATPPTFGVDLINELVENFGRCPKWSGRQAFVFVCQTVIEDDCLPMDQFAVHLMPHLLTLANDRVPNVRVLLAKTLRQTLLEKEYFLASASCHQEAVEQTIMALQMDRDSDVKYFASIHPSSTKLSEDAMSTASSTY
B2: Cleavage stimulation factor subunit 1 (protein, UniProt Q99LC2 1-431)
chain: MYRTKVGLKDRQQLYKLIISQLLYDGYISIANGLINEIKPQSVCAPSEQLLHLIKLGMENDDTAVQYAIGRSDTVAPGTGIDLEFDADVQTMSPEASEYETCYVTSHKGPCRVATYSRDGQLIATGSADASIKILDTERMLAKSAMPIEVMMNETAQQNMENHPVIRTLYDHVDEVTCLAFHPTEQILASGSRDYTLKLFDYSKPSAKRAFKYIQEAEMLRSISFHPSGDFILVGTQHPTLRLYDINTFQCFVSCNPQDQHTDAICSVNYNPSANMYVTGSKDGCIKLWDGVSNRCITTFEKAHDGAEVCSAIFSKNSKYILSSGKDSVAKLWEISTGRTLVRYTGAGLSGRQVHRTQAVFNHTEDYILLPDERTISLCCWDSRTAERRNLLSLGHNNIVRCIVHSPTNPGFMTCSDDFRARFWYRRSTTD
B3: Chromosome-associated kinesin KIF4 (protein, UniProt P33174 1-1231)
chain: MKEEVKGIPVRVALRCRPLVSKEIKEGCQTCLSFVPGEPQVVVGNDKSFTYDFVFDPSTEQEEVFNTAVAPLIKGVFKGYNATVLAYGQTGSGKTYSMGGAYTAEQEHDSAIGVIPRVIQLLFKEINKKSDFEFTLKVSYLEIYNEEILDLLCSSREKATQINIREDPKEGIKIVGLTEKTVLVASDTVSCLEQGNNSRTVASTAMNSQSSRSHAIFTISIEQRKKNDKNSSFRSKLHLVDLAGSERQKKTKAEGDRLREGININRGLLCLGNVISALGDDKKGNFVPYRDSKLTRLLQDSLGGNSHTLMIACVSPADSNLEETLNTLRYADRARKIKNKPIINIDPQAAELNHLKQQVQQLQILLLQAHGGTLPGDINVEPSENLQSLMEKNQSLVEENEKLSRGLSEAAGQTAQMLERIILTEQANEKMNAKLEELRRHAACKVDLQKLVETLEDQELKENIEIICNLQQVIAQLSDEAAACMTATIDTAGEADTQVQSSPDTSRSSDVFSTQHALRQAQMSKELIELNKALALKEALAKKMTQNDNQLQPIQFQYQDNIKNLESEVLSLQREKEELVLELQTAKKDANQAKLSERRRKRLQELEGQIADLKKKLQEQSKLLKLKESTEHTVSKLNQEIRMMKNQRVQLMRQMKEDAEKFRQWKQQKDKEVIQLKERDRKRQYELLKLERNFQKQSNVLRRKTEEAAAANKRLKDALQKQKEVAEKRKETQSRGMESTAARMKNWLGNEIEVMVSTEEAKRHLNGLLEERKILAQDVAQLKEKRESGENPPLKLRRRTFSYDEIHGQDSGAEDSIAKQIESLETELELRSAQIADLQQKLLDAESEDRPKQRWESIATILEAKCAIKYLVGELVSSKILVSKLESSLNQSKASCIDVQKMLFEEQNHFAKIETELKEELVKVEQQHQEKVLYLLSQLQQSQMTEKQLEESVSEKEQQLLSTLKCQEEELRKMQEVCEQNQQLLQENSAIKQKLTLLQVASKQKPHLTRNIFQSPDSSFEYIPPKPKPCRIKEKCLEQSFAVEGLQYYSEPSVAEQDNEDSDDHADEEWIPTKLVKVSKKSIQGCSCKGWCGNKQCGCRKQKSDCNVSCSCDPTKCRNRHQNQDNSDAIELNQDSENSFKLEDPTEVTSGLSFFHPICATPSSKILKEMCDADQVQLKQPVFVSSSDHPELKSIASESQENKAIGKKKKRALASNTSFFSGCSPIQEESH
B4: Ubiquitin carboxyl-terminal hydrolase 19 (protein, UniProt Q3UJD6 1-1360)
chain: MSAGASATGPRRGPPGLEEATSKKKQKDRANLESKDGDARRVSLPRKEPTKDELLLDWRQSADEVIVKLRVGTGPVRLEDVDAAFTDTDCVVRLPDGRQWGGVFFAEIQSSCTKVQARKGGLLQLVLPKKVPLLTWPSLLKPLGTQELVPGLQCQENGQELSPIALEPGSEPRRAKQEARNQKRAQGRGEVGSGAGPGTQAGPSAKRAVHLRRGPEGEGSMDGPGPQGDAPSFLSDSATQVEAEEKLCAPPMNTQTSLLSSEKSLALLTVEKTVSPRNDPVAPVMVQDRDPEPEQEDQVKEEMALGADPTALVEEPESMVNLAFVKNDSYEKGPDSVVVHVYVKEIRRDSSRVLFREQDFTLIFQTRDGNFLRLHPGCGPHTIFRWQVKLRNLIEPEQCTFCFTASRIDICLRKRQSQRWGGLEAPATRGAVGGAKVAVPTGPTPLDSTPPGGGPHPLTGQEEARAVEKEKPKARSEDSGLDGVVARTPLEHVAPKPDPHLASPKPTCMVPPMPHSPVSGDSVEEDEEEEKKVCLPGFTGLVNLGNTCFMNSVIQSLSNTRELRDFFHDRSFEAEINYNNPLGTGGRLAIGFAVLLRALWKGTHQAFQPSKLKAIVASKASQFTGYAQHDAQEFMAFLLDGLHEDLNRIQNKPYTETVDSDGRPDEVVAEEAWQRHKMRNDSFIVDLFQGQYKSKLVCPVCAKVSITFDPFLYLPVPLPQKQKVLPIFYFAREPHSKPIKFLVSVSKENSSASEVLDSLSQSVHVKPENLRLAEVIKNRFHRVFLPSHSLDAVSPTDVLLCFELLSPELAKERVVVLEVQQRPQVPSIPISKCAACQRKQQSEEEKLKRCTRCYRVGYCNQFCQKTHWPDHKGLCRPENIGYPFLVSVPASRLTYARLAQLLEGYARYSVSVFQPPFQPGRMALESQSPGCTTLLSTSSLEAGDSEREPIQPSELQLVTPVAEGDTGAHRVWPPADRGPVPSTSGLSSEMLASGPIEGCPLLAGERVSRPEAAVPGYQHSSESVNTHTPQFFIYKIDASNREQRLEDKGETPLELGDDCSLALVWRNNERLQEFVLVASKELECAEDPGSAGEAARAGHFTLDQCLNLFTRPEVLAPEEAWYCPQCKQHREASKQLLLWRLPNVLIVQLKRFSFRSFIWRDKINDLVEFPVRNLDLSKFCIGQKEEQLPSYDLYAVINHYGGMIGGHYTACARLPNDRSSQRSDVGWRLFDDSTVTTVDESQVVTRYAYVLFYRRRNSPVERPPRASHSEHHPDLGPAAEAAASQASRIWQELEAEEEMVPEGPGPLGPWGPQDWVGPPPRGPTTPDEGCLRYFVLGTVAALVALVLNVFYPLVSQSRWR

What follows are binders tested against FLAG-HA-BACH2-IDR (mouse) (UniProt P97303) (assay: affinity purification with mass spectrometry; ReCLIP: in-cell cross-linking (DSP, DTME) of BAL17 cells stably expressing FLAG-HA-BACH2-IDR, RIPA lysate, FLAG-M2 agarose, FLAG peptide elution, cross-links reversed with DTT, LC-MS/MS; compared with mock-infected cells).
In the case of B1, the binding is reported as “binds”.
In the case of B2, the binding is reported as “binds”.
With B3 the binding was “binds”.
In the case of B4, the binding is reported as “binds”.

These are yes or no findings as the source states them, for the method shown. In cells and extracts the contact can be indirect. These calls come from enrichment with a bait or labelling near it, and not all partners need be listed.
